In the supplement of paper PMC10849652:
Some of the results follow.

By UniProt entry, the sequences of proteins in these tests, tags left out. Where a name states a change or a piece, a line headed by the entry shows the natural chain unless it says otherwise.
UniProt Q9BRV3: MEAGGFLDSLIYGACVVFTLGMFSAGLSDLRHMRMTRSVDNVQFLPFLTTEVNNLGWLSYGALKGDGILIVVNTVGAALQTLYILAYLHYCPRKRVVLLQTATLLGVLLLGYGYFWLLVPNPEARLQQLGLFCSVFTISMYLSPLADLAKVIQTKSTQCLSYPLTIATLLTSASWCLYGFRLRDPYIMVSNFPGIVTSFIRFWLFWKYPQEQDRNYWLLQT
UniProt Q96CQ1: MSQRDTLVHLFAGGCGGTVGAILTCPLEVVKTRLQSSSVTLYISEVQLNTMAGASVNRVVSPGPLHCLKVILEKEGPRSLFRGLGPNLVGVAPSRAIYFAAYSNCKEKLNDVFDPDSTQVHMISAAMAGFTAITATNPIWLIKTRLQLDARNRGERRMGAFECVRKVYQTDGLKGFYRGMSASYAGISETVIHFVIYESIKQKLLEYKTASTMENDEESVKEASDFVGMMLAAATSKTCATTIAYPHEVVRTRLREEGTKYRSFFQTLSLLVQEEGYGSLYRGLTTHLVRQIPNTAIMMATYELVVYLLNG
UniProt Q6J4K2: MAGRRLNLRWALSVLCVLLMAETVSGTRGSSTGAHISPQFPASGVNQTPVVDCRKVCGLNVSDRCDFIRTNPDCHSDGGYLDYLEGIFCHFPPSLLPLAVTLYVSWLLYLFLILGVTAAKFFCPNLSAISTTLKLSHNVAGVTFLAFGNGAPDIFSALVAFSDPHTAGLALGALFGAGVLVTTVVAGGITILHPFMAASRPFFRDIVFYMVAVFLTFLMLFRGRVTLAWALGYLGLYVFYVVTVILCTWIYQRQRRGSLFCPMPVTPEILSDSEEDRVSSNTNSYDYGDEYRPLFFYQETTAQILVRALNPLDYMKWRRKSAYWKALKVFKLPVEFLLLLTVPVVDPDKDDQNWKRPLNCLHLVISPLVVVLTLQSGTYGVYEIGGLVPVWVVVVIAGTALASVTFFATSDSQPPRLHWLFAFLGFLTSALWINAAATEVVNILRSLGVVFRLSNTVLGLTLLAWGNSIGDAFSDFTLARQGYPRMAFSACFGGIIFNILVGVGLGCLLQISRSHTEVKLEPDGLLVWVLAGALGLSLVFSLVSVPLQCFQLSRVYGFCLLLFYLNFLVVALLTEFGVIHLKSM
UniProt Q8WWI5: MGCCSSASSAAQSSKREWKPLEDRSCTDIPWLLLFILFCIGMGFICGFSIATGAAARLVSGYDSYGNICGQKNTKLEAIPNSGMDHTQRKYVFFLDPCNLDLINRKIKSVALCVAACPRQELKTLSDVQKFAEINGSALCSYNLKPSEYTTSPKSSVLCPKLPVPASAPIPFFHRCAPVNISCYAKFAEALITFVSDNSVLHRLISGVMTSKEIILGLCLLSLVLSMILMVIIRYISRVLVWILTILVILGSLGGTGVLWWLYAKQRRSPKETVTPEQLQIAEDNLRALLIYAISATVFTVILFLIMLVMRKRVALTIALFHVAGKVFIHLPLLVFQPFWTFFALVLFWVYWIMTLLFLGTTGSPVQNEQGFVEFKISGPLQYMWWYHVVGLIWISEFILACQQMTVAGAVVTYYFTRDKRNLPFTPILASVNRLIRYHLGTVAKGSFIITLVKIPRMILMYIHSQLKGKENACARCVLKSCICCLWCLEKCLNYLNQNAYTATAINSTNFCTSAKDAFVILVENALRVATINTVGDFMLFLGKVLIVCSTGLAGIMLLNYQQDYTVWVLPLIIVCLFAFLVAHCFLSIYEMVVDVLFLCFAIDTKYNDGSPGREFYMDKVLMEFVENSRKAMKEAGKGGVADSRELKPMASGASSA
UniProt P16260: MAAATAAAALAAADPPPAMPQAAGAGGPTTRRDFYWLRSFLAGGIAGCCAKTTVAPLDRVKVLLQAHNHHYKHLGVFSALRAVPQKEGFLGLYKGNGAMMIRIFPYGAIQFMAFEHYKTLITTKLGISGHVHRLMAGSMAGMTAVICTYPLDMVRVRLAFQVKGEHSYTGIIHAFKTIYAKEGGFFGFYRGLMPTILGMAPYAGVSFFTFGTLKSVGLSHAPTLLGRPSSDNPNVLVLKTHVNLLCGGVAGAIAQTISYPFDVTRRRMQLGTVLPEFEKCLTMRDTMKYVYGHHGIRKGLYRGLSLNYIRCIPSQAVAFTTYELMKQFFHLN
UniProt O95391: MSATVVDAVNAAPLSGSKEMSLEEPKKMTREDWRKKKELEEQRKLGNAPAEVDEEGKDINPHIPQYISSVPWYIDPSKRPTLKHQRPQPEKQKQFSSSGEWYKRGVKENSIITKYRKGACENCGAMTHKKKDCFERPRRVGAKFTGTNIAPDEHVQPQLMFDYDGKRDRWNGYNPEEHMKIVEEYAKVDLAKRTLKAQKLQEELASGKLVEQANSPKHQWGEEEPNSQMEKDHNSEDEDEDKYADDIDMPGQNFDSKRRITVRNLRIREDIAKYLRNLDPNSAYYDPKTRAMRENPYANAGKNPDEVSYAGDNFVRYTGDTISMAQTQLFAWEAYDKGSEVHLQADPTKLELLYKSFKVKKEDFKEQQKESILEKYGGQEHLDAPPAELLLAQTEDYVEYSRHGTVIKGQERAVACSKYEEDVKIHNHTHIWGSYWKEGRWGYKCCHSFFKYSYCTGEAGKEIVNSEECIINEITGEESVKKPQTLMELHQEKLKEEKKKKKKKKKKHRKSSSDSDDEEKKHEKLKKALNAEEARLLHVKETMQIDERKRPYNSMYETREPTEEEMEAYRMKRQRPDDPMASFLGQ
UniProt Q9NP59: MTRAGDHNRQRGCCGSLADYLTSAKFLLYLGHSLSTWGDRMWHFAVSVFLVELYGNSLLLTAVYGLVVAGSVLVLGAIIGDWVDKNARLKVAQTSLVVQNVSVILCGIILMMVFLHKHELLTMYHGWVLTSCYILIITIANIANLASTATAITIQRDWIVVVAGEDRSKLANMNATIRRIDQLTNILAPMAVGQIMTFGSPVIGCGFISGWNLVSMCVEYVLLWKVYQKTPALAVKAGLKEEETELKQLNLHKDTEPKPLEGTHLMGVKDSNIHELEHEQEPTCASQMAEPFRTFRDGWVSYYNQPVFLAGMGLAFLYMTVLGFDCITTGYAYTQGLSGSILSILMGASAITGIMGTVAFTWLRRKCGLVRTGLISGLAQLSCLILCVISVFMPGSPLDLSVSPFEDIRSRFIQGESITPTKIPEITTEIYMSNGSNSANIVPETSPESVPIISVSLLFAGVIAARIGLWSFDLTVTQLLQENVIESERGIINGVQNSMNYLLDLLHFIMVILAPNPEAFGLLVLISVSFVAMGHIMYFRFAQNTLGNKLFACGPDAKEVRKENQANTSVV

What was measured:
Assay in all cases: log2 fold change, soluble protein after heating vs DMSO (PISA); higher = thermal stabilisation; K562 lysate, 10 uM; active = over 0.2 and 3.5 SD of the protein, either way, in both replicates (recomputed)
[1] = compound: CC(=O)c1cnc2ccc(-c3cc(Cl)c(O)c(Cl)c3)nc2c1N[C@H]1CC[C@H](CN(C)C)CC1
Method in brief: (§1)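 To prepare the extract, K562 pellets were dounce-homogenised in PBS pH 7.4 with 1 mM MgCl2, giving crude material at 1 mg/mL protein. This was treated with 10 μM compound for 30 min, then heated in aliquots for 3 min over 48°C-58°C before pooling and addition of NP-40 to 0.5% at 4°C. Centrifugation at 21,000xg for 90 min left soluble protein in the supernatant, which TMTpro 16plex LC-MS/MS quantified with equalised channel sums. Results are log-two fold changes in thermal stability compared with solvent controls, from duplicates.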

[2] = compound: CC(C)(C)Cn1c(N)nc2ccc(-c3[nH]c(C(C)(C)C)nc3-c3ccc(F)cc3)nc21 [ralimetinib]
Method in brief: as §1

[3] = compound: CC(C)(O)CC(=O)NCCn1ccc2ncnc(Nc3ccc(Oc4cccc(C(F)(F)F)c4)c(Cl)c3)c21
Method in brief: as §1

[4] = compound: CC(C)C1=C2N=C(C=C(N2N=C1)NCC3=CC=CC=C3)NCCCCCCN
Method in brief: as §1

[5] = compound: CC1=C(C2=C(C=C1)C(=O)C3=CC=CC=C3N2CCCN)C
Method in brief: as §1

[6] = compound: CC1=C(C=C(C=C1)NC(=O)C2=CC(=CC=C2)C(C)(C)C#N)NC3=CC4=C(C=C3)N=CN(C4=O)C
Method in brief: as §1

[7] = compound: CC1=C(C=C(C=C1)NC(=O)C2=CC(=CC=C2)N(C)C)NC(=O)C3=CC=C(C=C3)O
Method in brief: as §1

[8] = compound: CC1=CC=C(C=C1)SC2=C3C=C(SC3=CN=C2)C(=O)N
Method in brief: as §1

[9] = compound: CCCS(=O)(=O)Nc1ccc(F)c(C(=O)c2c[nH]c3ncc(Cl)cc23)c1F
Method in brief: as §1

[10] = compound: CC[C@@H]1C(=O)N(C)c2cnc(Nc3ccc(C(=O)N[C@H]4CC[C@H](N5CCN(CC6CC6)CC5)CC4)cc3OC)nc2N1C(C)C [volasertib]
Method in brief: as §1

[11] = compound: CCn1c(C(=O)N(C2CC2)C2CC2)cc2c3c(ncn3C)c(Nc3cc(C)n(C)n3)nc21
Method in brief: as §1

[12] = compound: CCn1cc(-c2ccnc3[nH]c(-c4cccc(CN(C)C)c4)cc23)c(-c2ccc(NC(=O)N(C)C)cc2)n1
Method in brief: as §1

[13] = compound: CN1CCC(CNc2ccc3ncc(-c4cccc(OC(F)(F)F)c4)n3n2)CC1
Method in brief: as §1

[14] = compound: CN1CCN(CCOc2cc(OC3CCOCC3)c3c(Nc4c(Cl)ccc5c4OCO5)ncnc3c2)CC1 [saracatinib]
Method in brief: as §1

[15] = compound: CN1CCN(c2nc(C3=C(c4c[nH]c5ccccc45)C(=O)NC3=O)c3ccccc3n2)CC1 [sotrastaurin]
Method in brief: as §1

[16] = compound: CC1=C(C(CC(=O)N1)C2=CC=C(C=C2)C(F)(F)F)C(=O)NC3=C(C=C4C(=C3)C=NN4)F
Method in brief: as §1

[17] = compound: CCCS(=O)(=O)Nc1ccc(F)c(C(=O)c2c[nH]c3ncc(-c4ccc(Cl)cc4)cc23)c1F [vemurafenib]
Method in brief: as §1

[18] = compound: CC[C@@H]1C(=O)N(C)c2cnc(Nc3ccc(C(=O)NC4CCN(C)CC4)cc3OC)nc2N1C1CCCC1
Method in brief: as §1

[19] = compound: C=CC(=O)N1CCC[C@@H](n2nc(-c3ccc(Oc4ccccc4)cc3)c3c(N)ncnc32)C1 [ibrutinib]
Method in brief: as §1

[20] = compound: CCN(CCCOc1ccc2c(Nc3cc(CC(=O)Nc4cccc(F)c4)[nH]n3)ncnc2c1)CCOP(=O)(O)O [barasertib]
Method in brief: as §1

Measured: log2 fold change

SLC50A1 (UniProt Q9BRV3)
inactive: [1] -0.085 | [2] -0.1 | [3] -0.483 | [4] -0.095 | [5] -0.053 | [6] 0.16 | [7] 0.04 | [8] -0.065 | [9] 0.277 | [10] 0 | [11] 0.139 | [12] -0.165 | [13] 0.069 | [14] -0.068 | [15] 0.156

SLC25A36 (UniProt Q96CQ1)
inactive: [1] -0.012 | [2] 0.142 | [3] -0.048 | [4] 0.1 | [16] 0.044 | [5] -0.16 | [6] 0.011 | [7] 0.027 | [8] 0.013 | [17] -0.272 | [9] 0.007 | [18] 0.113 | [10] -0.045 | [11] 0.039 | [12] -0.016 | [13] 0.035 | [14] -0.001 | [15] -0.055

SLC8B1 (UniProt Q6J4K2)
inactive: [1] 0.061 | [5] 0.05 | [8] 0.067 | [17] 0.167 | [9] 0.143 | [10] 0.003 | [12] -0.043 | [13] 0.126 | [14] -0.069

SLC44A1 (UniProt Q8WWI5)
inactive: [2] 0.117 | [3] -0.263 | [5] -0.237 | [7] -0.012 | [11] -0.036 | [12] -0.498 | [13] 0.017 | [14] -0.135

SLC25A16 (UniProt P16260)
inactive: [4] -0.04 | [16] 0.126 | [6] -0.012 | [17] -0.02 | [12] 0.298 | [13] -0.051 | [15] -0.069

Retrieved one by one from the list above (two):
SLC8B1 (UniProt Q6J4K2)
inactive: [1] 0.061 | [5] 0.05 | [8] 0.067 | [17] 0.167 | [9] 0.143 | [10] 0.003 | [12] -0.043 | [13] 0.126 | [14] -0.069

SLC25A36 (UniProt Q96CQ1)
inactive: [1] -0.012 | [2] 0.142 | [3] -0.048 | [4] 0.1 | [16] 0.044 | [5] -0.16 | [6] 0.011 | [7] 0.027 | [8] 0.013 | [17] -0.272 | [9] 0.007 | [18] 0.113 | [10] -0.045 | [11] 0.039 | [12] -0.016 | [13] 0.035 | [14] -0.001 | [15] -0.055

(listing goes on)

SLC3A2 (UniProt F5H867)
inactive: [19] -0.06 | [1] 0.016 | [16] -0.039 | [8] -0.052 | [9] 0.024 | [20] -0.011 | [10] 0.051 | [12] -0.111 | [13] 0.106

SLU7 (UniProt O95391)
inactive: [19] -0.084 | [2] -0.013 | [3] -0.018 | [4] 0.045 | [16] -0.029 | [5] -0.015 | [6] 0 | [7] -0.031 | [17] -0.043 | [20] -0.07 | [18] 0.062 | [11] -0.004 | [12] -0.188 | [13] 0.166 | [14] 0.093 | [15] -0.027

SLC40A1 (UniProt Q9NP59)
active: [12] -0.491
inactive: [1] -0.028 | [2] -0.037 | [3] -0.096 | [4] 0.042 | [16] -0.017 | [5] 0.049 | [6] -0.034 | [7] 0.041 | [8] -0.055 | [17] 0.01 | [9] -0.037 | [18] 0.123 | [10] 0.037 | [11] -0.106 | [13] 0.067 | [14] 0 | [15] 0.026
